In patent publication US7883859B2, “Method for producing active and stable acetylcholinesterase bioassay element” (priority 2005, dated 2011):
Some of these results come from one statement about several compounds together.

Tested on: acetylcholinesterase
Assay: Inhibition of the immobilized enzyme of the bioassay element by pesticides (FIG. 5)
Assay type: biochemical
Details: for inhibition of the enzyme activity: color becomes colorless
Source text: The bioassay element of the present invention is referred to FIG. 1 which illustrates the structure of bioassay element in one embodiment of the present invention. The bioassay element includes a carrier 100, an enzyme 110 as a testing material, and a coating film 120. The carrier includes a membrane 101 and a stationary layer 102 applying on the membrane 101. The enzyme 110 is dispersed in the coating film 120 that covers on the surface of the stationary layer 102. The coating film 120 effectively increases the amount of the immobilized enzyme 110 and raises the activity of the enzyme 110 and fixes the enzyme 110 on the surface of the carrier. In the working example of the present invention, the enzyme acetylcholinesterase is selected, and the coating film 120 consists of casein, calcium ions, a color developer (DTNB), and trehalose. The stationary layer 102 consists of casein and calcium ions.
In the working example of the present invention, the stationary-layer mixed solution was prepared by mixing 120 mM of a calcium ion solution and 2.5% of a casein solution in a ratio of 1:14 by volume. The bioassay solution was prepared by mixing an enzyme solution and the mixed solution containing casein in a ratio of 5:7 by volume. The enzyme solution was prepared by mixing 1.52 U/μl of an enzyme and 5% of trehalose in a ratio of 2.61:108 by volume. The mixed solution containing casein was mixed with a color developer, 120 mM of a calcium ion solution and 4% of a casein solution in a ratio of (0.009 to 0.012):1:(6 to 7.75) (w/v/v).
The results of the inhibiting effect of several pesticides (with different concentrations) on the bioassay element of the present invention are referred to FIG. 5. […] At the same concentration, the higher inhibition represents that the enzyme has higher detection sensitivity to pesticide. […] Within the linear relationship between the concentration of each pesticide and the inhibition of the enzyme, a biosensor capable of quantitatively detecting pesticides in association with optical sensors can be designed.
Therefore, if the inhibition of the enzyme activity is greater than 30%, it should be very easy to distinguish the yellow-color level difference by human eyes. In addition, when the concentration of naled was greater than 3.5 ppm and the concentrations of malathion, trichlorfon and carbaryl were greater than 7 ppm, the inhibition of the enzyme activity would be greater than 60%. Thus, the color would become colorless.

[1] = concentration greater than 7 ppm

SMILES | inhibition of the enzyme activity [1] | concentration range with linear relationship between pesticide concentration and inhibition of the enzyme activity [ppm] | pesticide concentration above which the increase of inhibition is plateau | inhibition of the enzyme activity (concentration greater than 3.5 ppm)
CNC(=O)Oc1cccc2ccccc12 [carbaryl] | greater than 60% |  |  | 
CCOC(=O)CC(SP(=S)(OC)OC)C(=O)OCC (centres unmarked) [malathion] | greater than 60% | 0 to 1 | greater than 1 ppm | 
COP(=O)(OC)OC(Br)C(Cl)(Cl)Br (centres unmarked) [naled] |  | 0 to 1 | greater than 1 ppm | greater than 60%
COP(=O)(OC)C(O)C(Cl)(Cl)Cl (centres unmarked) [trichlorfon] | greater than 60% |  |  | 
